The other results are listed elsewhere or left out. Most entries show no effect beyond the scatter of the controls.

Protein sequences, listed by entry. Tags and fused reporters are not part of them. Lines headed by an entry give the natural chain unless they say otherwise; changes in a name come on top.
UniProt Q9NQT8: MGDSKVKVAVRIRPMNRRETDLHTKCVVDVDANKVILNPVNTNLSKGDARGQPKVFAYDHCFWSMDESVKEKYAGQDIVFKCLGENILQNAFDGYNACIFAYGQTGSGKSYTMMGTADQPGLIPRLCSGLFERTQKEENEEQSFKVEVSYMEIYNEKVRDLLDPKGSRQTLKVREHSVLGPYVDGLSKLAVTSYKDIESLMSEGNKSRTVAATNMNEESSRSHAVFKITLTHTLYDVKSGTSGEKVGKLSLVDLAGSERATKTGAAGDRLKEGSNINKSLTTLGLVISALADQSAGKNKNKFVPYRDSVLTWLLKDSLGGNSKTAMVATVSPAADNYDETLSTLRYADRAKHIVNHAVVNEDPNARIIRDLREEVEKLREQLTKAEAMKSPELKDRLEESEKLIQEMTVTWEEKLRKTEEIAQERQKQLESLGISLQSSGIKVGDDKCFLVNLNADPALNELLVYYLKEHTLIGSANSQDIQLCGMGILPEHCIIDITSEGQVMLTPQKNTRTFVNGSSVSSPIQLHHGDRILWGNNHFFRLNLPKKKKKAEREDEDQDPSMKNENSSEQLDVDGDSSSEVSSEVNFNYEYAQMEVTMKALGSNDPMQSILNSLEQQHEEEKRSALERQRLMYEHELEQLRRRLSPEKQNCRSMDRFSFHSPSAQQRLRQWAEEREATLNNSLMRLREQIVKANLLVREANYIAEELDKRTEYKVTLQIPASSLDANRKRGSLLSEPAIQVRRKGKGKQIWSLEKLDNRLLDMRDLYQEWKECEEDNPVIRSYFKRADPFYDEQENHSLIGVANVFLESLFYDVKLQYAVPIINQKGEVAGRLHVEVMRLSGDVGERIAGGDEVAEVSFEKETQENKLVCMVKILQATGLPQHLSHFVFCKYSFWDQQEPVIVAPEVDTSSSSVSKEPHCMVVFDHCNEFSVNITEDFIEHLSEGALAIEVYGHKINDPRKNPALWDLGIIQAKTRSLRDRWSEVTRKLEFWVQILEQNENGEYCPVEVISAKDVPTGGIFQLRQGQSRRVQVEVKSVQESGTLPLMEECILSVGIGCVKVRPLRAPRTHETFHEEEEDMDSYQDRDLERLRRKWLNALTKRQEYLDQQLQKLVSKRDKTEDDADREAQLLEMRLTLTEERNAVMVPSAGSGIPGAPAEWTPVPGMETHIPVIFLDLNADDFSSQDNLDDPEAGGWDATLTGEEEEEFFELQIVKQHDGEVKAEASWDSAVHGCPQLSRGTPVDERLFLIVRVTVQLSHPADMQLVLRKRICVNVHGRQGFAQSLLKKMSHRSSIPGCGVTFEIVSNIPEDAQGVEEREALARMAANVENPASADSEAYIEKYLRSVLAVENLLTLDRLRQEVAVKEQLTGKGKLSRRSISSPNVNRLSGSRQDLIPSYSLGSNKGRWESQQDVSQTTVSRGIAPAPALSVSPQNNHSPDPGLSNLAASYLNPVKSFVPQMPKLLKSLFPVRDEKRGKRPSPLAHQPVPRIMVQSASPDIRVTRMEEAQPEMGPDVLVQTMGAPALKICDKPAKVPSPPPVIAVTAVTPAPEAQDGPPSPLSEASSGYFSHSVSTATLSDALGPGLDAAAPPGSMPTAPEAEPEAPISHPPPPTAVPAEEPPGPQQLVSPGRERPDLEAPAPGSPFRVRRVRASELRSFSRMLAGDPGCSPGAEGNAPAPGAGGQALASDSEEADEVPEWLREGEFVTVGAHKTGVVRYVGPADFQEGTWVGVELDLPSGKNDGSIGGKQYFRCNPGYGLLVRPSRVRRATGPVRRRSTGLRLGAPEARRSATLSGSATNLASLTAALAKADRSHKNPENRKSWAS
UniProt Q9NTZ6: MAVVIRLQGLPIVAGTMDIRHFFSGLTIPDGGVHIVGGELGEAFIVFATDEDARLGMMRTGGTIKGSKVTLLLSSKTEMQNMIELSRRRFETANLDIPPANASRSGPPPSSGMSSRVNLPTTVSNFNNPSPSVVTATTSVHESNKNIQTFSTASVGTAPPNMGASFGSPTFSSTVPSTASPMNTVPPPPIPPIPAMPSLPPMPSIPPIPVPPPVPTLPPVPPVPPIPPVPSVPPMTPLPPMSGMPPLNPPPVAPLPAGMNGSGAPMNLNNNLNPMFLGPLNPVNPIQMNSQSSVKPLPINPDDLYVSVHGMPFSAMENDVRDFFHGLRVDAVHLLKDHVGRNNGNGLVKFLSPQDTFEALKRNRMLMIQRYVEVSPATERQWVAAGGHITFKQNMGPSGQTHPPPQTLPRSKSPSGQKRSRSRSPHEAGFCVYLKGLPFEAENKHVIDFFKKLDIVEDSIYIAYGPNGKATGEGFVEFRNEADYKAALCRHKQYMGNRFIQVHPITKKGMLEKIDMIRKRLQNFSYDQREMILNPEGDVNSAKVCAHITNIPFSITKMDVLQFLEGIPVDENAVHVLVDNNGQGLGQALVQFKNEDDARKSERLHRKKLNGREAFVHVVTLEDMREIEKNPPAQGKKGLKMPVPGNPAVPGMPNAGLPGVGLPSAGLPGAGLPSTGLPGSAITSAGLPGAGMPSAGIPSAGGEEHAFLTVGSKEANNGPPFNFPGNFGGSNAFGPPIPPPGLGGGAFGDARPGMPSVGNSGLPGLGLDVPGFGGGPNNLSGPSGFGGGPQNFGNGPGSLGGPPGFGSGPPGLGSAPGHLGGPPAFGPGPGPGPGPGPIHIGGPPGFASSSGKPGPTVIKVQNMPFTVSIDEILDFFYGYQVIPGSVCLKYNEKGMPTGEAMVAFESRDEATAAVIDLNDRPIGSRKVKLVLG
UniProt Q9NQG7: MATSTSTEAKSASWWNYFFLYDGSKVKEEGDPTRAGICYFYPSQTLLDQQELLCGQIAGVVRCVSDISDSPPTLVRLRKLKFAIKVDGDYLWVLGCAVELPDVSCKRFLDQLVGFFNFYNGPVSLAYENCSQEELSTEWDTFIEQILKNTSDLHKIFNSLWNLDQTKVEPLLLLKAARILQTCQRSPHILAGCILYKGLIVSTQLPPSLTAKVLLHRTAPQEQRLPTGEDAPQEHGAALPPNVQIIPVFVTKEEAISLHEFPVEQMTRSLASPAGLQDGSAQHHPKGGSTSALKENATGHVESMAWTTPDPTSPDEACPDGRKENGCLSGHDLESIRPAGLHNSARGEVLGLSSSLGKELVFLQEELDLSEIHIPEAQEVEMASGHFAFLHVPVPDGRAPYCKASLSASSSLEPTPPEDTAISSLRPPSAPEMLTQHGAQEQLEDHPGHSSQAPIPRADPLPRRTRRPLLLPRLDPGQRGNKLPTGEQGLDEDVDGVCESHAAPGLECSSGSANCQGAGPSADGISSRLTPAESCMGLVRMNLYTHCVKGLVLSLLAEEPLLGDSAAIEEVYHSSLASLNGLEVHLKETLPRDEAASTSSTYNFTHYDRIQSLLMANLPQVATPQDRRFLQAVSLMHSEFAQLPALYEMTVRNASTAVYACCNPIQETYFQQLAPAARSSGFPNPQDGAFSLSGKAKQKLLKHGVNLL
UniProt Q9NWV4: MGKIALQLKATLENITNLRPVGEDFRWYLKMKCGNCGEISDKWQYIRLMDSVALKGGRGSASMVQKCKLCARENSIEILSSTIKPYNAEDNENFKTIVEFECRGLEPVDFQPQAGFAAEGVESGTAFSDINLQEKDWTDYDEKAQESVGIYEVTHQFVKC
UniProt Q9NVC6: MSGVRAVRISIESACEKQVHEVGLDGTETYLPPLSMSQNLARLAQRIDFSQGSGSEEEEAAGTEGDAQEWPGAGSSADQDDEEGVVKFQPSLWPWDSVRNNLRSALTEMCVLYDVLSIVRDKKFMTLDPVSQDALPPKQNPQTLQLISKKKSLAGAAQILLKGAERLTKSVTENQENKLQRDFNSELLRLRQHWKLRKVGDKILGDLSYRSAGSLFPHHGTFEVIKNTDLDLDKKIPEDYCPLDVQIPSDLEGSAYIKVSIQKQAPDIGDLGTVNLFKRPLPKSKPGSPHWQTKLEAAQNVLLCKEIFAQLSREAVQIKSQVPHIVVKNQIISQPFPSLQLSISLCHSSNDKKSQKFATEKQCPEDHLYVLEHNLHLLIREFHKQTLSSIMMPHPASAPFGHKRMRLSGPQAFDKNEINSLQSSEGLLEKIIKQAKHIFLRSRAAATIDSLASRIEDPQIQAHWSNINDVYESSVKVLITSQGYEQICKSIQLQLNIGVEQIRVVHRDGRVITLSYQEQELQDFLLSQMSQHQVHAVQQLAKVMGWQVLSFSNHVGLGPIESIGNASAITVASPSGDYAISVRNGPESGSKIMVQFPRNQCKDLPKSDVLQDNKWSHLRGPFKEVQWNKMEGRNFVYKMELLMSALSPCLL
UniProt Q9NQE9: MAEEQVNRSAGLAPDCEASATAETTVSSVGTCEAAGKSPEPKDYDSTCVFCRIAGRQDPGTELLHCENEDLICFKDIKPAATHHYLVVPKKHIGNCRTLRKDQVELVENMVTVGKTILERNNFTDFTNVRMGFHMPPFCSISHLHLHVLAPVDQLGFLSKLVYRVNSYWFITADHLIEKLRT
UniProt Q9NS73: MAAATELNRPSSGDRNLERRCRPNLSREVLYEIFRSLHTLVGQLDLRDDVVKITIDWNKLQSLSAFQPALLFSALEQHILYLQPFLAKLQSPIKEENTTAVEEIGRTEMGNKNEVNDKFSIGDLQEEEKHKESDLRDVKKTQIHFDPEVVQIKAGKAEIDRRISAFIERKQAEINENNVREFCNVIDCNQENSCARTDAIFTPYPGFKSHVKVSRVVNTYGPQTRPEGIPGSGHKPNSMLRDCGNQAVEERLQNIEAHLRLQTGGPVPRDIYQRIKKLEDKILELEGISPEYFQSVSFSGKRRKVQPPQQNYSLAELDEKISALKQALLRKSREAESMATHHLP
UniProt Q9NNX1: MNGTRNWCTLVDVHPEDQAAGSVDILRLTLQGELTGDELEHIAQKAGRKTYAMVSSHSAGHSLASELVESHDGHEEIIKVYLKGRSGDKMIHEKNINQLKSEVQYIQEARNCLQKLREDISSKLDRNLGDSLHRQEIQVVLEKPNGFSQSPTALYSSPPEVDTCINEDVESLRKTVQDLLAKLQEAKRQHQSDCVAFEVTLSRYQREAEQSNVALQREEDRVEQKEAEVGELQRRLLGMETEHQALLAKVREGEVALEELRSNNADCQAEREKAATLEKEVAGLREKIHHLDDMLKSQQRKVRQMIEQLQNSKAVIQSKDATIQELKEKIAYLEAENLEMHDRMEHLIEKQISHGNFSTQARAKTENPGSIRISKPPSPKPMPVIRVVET

Compound in the assay: Cc1nc(Nc2ncc(C(=O)Nc3c(C)cccc3Cl)s2)cc(N2CCN(CCO)CC2)n1 [dasatinib]
Description: log2 fold change of tryptic peptide abundance, ligand vs vehicle (limited proteolysis) (log2 ratio); higher = more trypsin-susceptible (destabilized). The following applies: ligand concentration: 5 uM; sample: K562 cleared lysate.
Regarding “KIF13B (peptide sequence: GKRPSPLAHQPVPR, peptide start residue: 1477) (UniProt Q9NQT8)”, the log2 fold change was -1.02.
The result for “RBM12 (peptide sequence: VDAVHLLK, peptide start residue: 329) (UniProt Q9NTZ6)” reads -0.319; that for “HPS4 (peptide sequence: GEVLGLSSSLGK, peptide start residue: 347) (UniProt Q9NQG7)”, -0.291.
As for “UniProt Q9NWV4 (peptide sequence: LMDSVALK, peptide start residue: 48)”, the figure is 0.121; as for “MED17 (peptide sequence: DFNSELLR, peptide start residue: 182) (UniProt Q9NVC6)”, -0.428; as for “HINT3 (peptide sequence: KHIGNCR, peptide start residue: 91) (UniProt Q9NQE9)”, -0.527.
The result for “MBIP (peptide sequence: EAESMATHHLP, peptide start residue: 334) (UniProt Q9NS73)” reads 0.388; that for “TUFT1 (peptide sequence: NLGDSLHR, peptide start residue: 127) (UniProt Q9NNX1)”, -0.103.
